Test: Etching capacity on tooth enamel (scanning electron microscope)
Conditions: 40% aqueous solution on bovine tooth enamel

Structure (SMILES)	exposure time to produce clearly visible etching pattern [s]
C=C(COCCP(=O)(O)O)C(=O)O [Comparison monomer, 2-[4-dihydroxyphosphoryl-2-oxa-butyl]-acrylic acid, reference compound]	30
C=C(COCCP(=O)(O)OC)C(=O)O [Monomer 1, 2-[4-hydroxymethoxyphosphoryl-2-oxa-butyl]-acrylic acid]	10
